In US20230338424A1 (LENTIGEN TECHNOLOGY, published 2023):
Results are given in words; binding and its absence hold for the method and conditions named. Some binding calls cover weakened binding; strength is not graded here. Tags and fused reporters may be left off the sequences shown.

Target: T1, recombinant human CD123-Fc (human, UniProt P26951 19-305, limits assumed)
T1 construct: Treated as one molecule; also called CD123-Fc peptide (Novoprotein); recombinant IL3R-alpha Fc-tagged; not shown: Fc tag
T1 sequence (looked up): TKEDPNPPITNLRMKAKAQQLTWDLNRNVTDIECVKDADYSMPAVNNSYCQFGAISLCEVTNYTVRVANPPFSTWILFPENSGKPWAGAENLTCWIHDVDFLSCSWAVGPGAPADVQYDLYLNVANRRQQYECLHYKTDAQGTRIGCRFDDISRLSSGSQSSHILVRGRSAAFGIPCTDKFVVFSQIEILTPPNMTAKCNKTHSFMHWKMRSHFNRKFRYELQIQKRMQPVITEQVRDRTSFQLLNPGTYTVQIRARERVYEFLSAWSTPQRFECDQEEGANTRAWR
Experiment: yeast display, MACS enrichment then FACS sort with 1 ug/ml CD123-Fc, anti-human Fc PE

binding: binds
B1: CD123 binder MT-32 (scFv)
scFv: QVQLQQSGPGLVKPSQTLSLTCAISGDSVSSNSAAWNWIRQSPSRGLEWLGRTYYRSKWYNDYAVSVKSRITINPDTSKNQFSLQLNSVTPEDMAVYYCARGVDSSFDYWGQGTLVTVSSGGGGSGGGGSGGGGSQSVVTQPPSVSAAPGQSVTISCSGSSSTVGDNYVSWYQQLPGTAPKLLIFDDYKRPSGVPDRFSGSQSGTSASLVITGLQAEDEADYYCQSYDSSLSGYVFGPGTKVTVLG
